The target of test [1] is GST-Pak1 binding domain (Pak1 70-117) (UniProt Q13153). In words: pull-down; GST-PKB (GST-PBD) immobilised on glutathione agarose beads, incubated with HEK-293T lysate expressing vsvg-Cdc42 CA or DN; only the target purified.
For test [2], the target named is GST-Cdc42 (wild type) (UniProt P60953). The experiment in a line: pull-down; purified GST-Cdc42 incubated with GDP (inactive form), immobilised, incubated with lysate of HEK-293T cells overexpressing V5-CB isoforms; WB for V5; only the target purified.
Test [3] has the same target. In words: pull-down; purified GST-Cdc42 incubated with γsGTP (active form), immobilised, incubated with lysate of HEK-293T cells overexpressing V5-CB isoforms; WB for V5; only the target purified.

Protein sequences, listed by entry. Tags and fused reporters are not part of them. Lines headed by an entry give the natural chain unless they say otherwise; changes in a name come on top. Chains listed by the source or under a name are the forms on record and can include a tag or linker. Residues count along the entry.
UniProt Q13153, residues 70-117: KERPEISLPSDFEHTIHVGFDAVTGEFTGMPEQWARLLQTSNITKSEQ
UniProt P60953: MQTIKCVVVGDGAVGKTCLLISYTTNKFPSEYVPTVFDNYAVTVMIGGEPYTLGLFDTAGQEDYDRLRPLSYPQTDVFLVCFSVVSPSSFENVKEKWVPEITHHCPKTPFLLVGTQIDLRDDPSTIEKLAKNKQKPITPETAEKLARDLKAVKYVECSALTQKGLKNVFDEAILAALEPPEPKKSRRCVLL
VSVG-Cdc42 DN (N17) (P60953, form named): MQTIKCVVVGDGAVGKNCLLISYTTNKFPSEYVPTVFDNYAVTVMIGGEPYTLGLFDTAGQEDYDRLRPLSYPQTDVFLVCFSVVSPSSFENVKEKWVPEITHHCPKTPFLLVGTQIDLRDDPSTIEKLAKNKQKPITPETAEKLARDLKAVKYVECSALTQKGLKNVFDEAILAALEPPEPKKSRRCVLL
VSVG-Cdc42 CA (QL) (P60953, form named): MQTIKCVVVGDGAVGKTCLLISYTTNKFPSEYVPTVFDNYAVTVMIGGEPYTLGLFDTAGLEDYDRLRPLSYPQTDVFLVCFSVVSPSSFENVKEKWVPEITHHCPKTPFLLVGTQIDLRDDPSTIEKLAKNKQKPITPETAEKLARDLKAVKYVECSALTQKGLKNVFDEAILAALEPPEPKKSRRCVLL

Results are given in words; binding and its absence hold for the method and conditions named. In cells and extracts the contact can be indirect. Some entries that bind do so weakly or less than the wild type. For some of these results: Where a sequence is shown, tags or fusion partners need not be part of it.

Results on 3 molecules are retold here after PMC5673238.

On to “VSVG-Cdc42 DN (N17) (from UniProt P60953 1-191)”, for which the binding result in test [1] is reported as “no binding”.

As to “VSVG-Cdc42 CA (QL) (from UniProt P60953 1-191)”, the binding result in test [1] is “binds”.

B1: V5-CB1_(SH3+) (collybistin splice isoform CB1 with SH3 domain) (protein, UniProt Q9QX73 1-493)
chain: MQWIRGGSGMLITGDSIVSAEAVWDHVTMANRGVAFKAGDVIKVLDASNKDWWWGQIDDEEGWFPASFVRLWVNQEDGVEEGPSDVQNGHLDPNSDCLCLGRPLQNRDQMRANVINEIMSTERHYIKHLKDICEGYLKQCRKRRDMFSDEQLKVIFGNIEDIYRFQMGFVRDLEKQYNNDDPHLSEIGPCFLEHQDGFWIYSEYCNNHLDACMELSKLMKDSRYQHFFEACRLLQQMIDIAIDGFLLTPVQKICKYPLQLAELLKYTAQDHSDYRYVAAALAVMRNVTQQINERKRRLENIDKIAQWQASVLDWEGDDILDRSSELIYTGEMAWIYQPYGRNQQRVFFLFDHQMVLCKKDLIRRDILYYKGRIDMDKYEVIDIEDGRDDDFNVSMKNAFKLHNKETEEVHLFFAKKLEEKIRWLRAFREERKMVQEDEKIGFEISENQKRQAAMTVRKASKQKGRVGEEENQSLELKRACEVLQRLWSPGKKS
Regarding B1, the binding result with GST-Cdc42 (wild type) [2] and in the test with GST-Cdc42 (wild type) [3] was “binds” throughout.
